Record: PubChem BioAssay AID504784 (Drosophila RNAi Screening Center, 2011)
Screen: 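Fly genes whose silencing alters how much lipid cells keep in droplets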 (primary screen). Cells: Drosophila Kc167 embryonic cells. Knock-down reagent: long dsRNA against Drosophila genes, about 250 ng dsRNA per well. Duration: 4 days. Conditions: cells fed 400 µM oleic acid bound to BSA. Measured: 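Microscope images give a droplet-to-nucleus area ratio, taken as log and converted to a screen-wide B-score; higher values mean greater lipid storage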. Scale: droplet/nuclear area B-score: higher = more stored lipid (overstorage).
The deposit covers about 17,000 reagents; below is an unselected part of those with a known target gene and a result. 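Each column is one replicate's B-score; the combined score over replicates was not deposited, so single values may mislead.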 No sequences are given here.

droplet/nuclear area B-score, replicate 1	droplet/nuclear area B-score, replicate 2	droplet/nuclear area B-score, replicate 3	gene	DRSC id
-0.00618	1.56		rngo (rings lost)	DRSC19903
-2.06	1.68		CG6055	DRSC02923
-0.44	-0.841		Drsl6 (Drosomycin-like 6)	DRSC08161
1.99	1.38		CG32054	DRSC10684
-0.333	-0.728		CG17564	DRSC02626
2.49	0.0279		Pph13 (PvuII-PstI homology 13)	DRSC00775
0.0255	2.34		Pph13 (PvuII-PstI homology 13)	DRSC23162
-0.276	-1.05		eg (eagle)	DRSC11885
-0.0259	0.00318		CG1979	DRSC12495
-0.0169	2.47		Ilk (Integrin linked kinase)	DRSC11868
0.615			CG17272	DRSC15211
-0.0218	-1.02		CG31496	DRSC12547
-0.599	0.477		dx (deltex)	DRSC18767
0.875	0.537		pirk (poor Imd response upon knock-in)	DRSC04269
2.34	0.0999		CG17929	DRSC15291
2.54	1.62	0.535	Tdh (L-threonine dehydrogenase)	DRSC11788
0.125	0.0425		CG12402	DRSC14508
1.05	-1.48		Acbp4 (Acyl-CoA binding protein 4)	DRSC11023
-0.392	-1.31		GCS2alpha (Glucosidase 2 alpha subunit)	DRSC21036
-0.0223	-1.64		Ir92a (Ionotropic receptor 92a)	DRSC15111
-0.246	1.07		Dhfr (Dihydrofolate reductase)	DRSC16646
0.286	0.386		CG6216	DRSC10606
-1.82	-0.535		mtt (mangetout)	DRSC05106
-0.106	0.217		mtt (mangetout)	DRSC05107
-3.12	1.86		mtt (mangetout)	DRSC06753
-3.46	-0.102		mtt (mangetout)	DRSC07235
4.15	-0.371		wtrw (water witch)	DRSC14241
2.5	2.88	0.539	wtrw (water witch)	DRSC15278
1.09	-0.673		Prosalpha2 (Proteasome alpha2 subunit)	DRSC16798
0.462	1.36		CG42238	DRSC03180
-0.0364	-0.636		CG6380	DRSC02950
-0.236	-0.652		5-HT2B (5-hydroxytryptamine (serotonin) receptor 2B)	DRSC16360
-0.101	1.12		5-HT2B (5-hydroxytryptamine (serotonin) receptor 2B)	DRSC16362
-0.178	0.865		Nep4 (Neprilysin 4)	DRSC15539

Taken from above.
Value of Ilk (Integrin linked kinase) [DRSC11868] in “droplet/nuclear area B-score, replicate 2”: 2.47
Entry of Acbp4 (Acyl-CoA binding protein 4) [DRSC11023] in “droplet/nuclear area B-score, replicate 2”: -1.48
Pph13 (PvuII-PstI homology 13) [DRSC00775], droplet/nuclear area B-score, replicate 1 = 2.49
Result for CG12402 [DRSC14508] under “droplet/nuclear area B-score, replicate 2”: 0.0425
CG17929 [DRSC15291], droplet/nuclear area B-score, replicate 1: 2.34
